Results published in US9556098B2, “Reduced coenzyme Q10 crystal having excellent stability” (KANEKA CORPORATION, priority 2011, dated 2017).
At least one structure is not confirmed: it was looked up by name or label, or the drawing left a doubt.

Experiment: Oxidation stability on storage in an open glass bottle in air, HPLC analysis
Format: physicochemical
Conditions: 25° C., light shielding

Structure (SMILES) | Weight ratio of reduced coenzyme Q10/oxidized coenzyme Q10 (After 3 days) | Weight ratio of reduced coenzyme Q10/oxidized coenzyme Q10 (After 7 days) | Weight ratio of reduced coenzyme Q10/oxidized coenzyme Q10 (After 14 days) | Weight ratio of reduced coenzyme Q10/oxidized coenzyme Q10 (After 28 days) | Weight ratio of reduced coenzyme Q10/oxidized coenzyme Q10 (Before start)
COc1c(O)c(C)c(C/C=C(\C)CC/C=C(\C)CC/C=C(\C)CC/C=C(\C)CC/C=C(\C)CC/C=C(\C)CC/C=C(\C)CC/C=C(\C)CC/C=C(\C)CCC=C(C)C)c(O)c1OC [Comparative Example 1, reduced coenzyme Q10] | 97.7/2.3 | 84.0/16.0 | 50.2/49.8 | 28.2/71.8 | 99.5/0.5
COc1c(O)c(C)c(C/C=C(\C)CC/C=C(\C)CC/C=C(\C)CC/C=C(\C)CC/C=C(\C)CC/C=C(\C)CC/C=C(\C)CC/C=C(\C)CC/C=C(\C)CCC=C(C)C)c(O)c1OC [Example 1, reduced coenzyme Q10] | 98.6/1.4 | 97.8/2.2 | 95.7/4.3 | 93.1/6.9 | 98.8/1.2
